# According to the supplement of paper PMC8728848:
# The list shows a part of the results.
# B1: Flo11 (Saccharomyces cerevisiae), P08640 (protein)
# chain: MQRPFLLAYLVLSLLFNSALGFPTALVPRGSSEGTSCNSIVNGCPNLDFNWHMDQQNIMQYTLDVTSVSWVQDNTYQITIHVKGKENIDLKYLWSLKIIGVTGPKGTVQLYGYNENTYLIDNPTDFTATFEVYATQDVNSCQVWMPNFQIQFEYLQGSAAQYASSWQWGTTSFDLSTGCNNYDNQGHSQTDFPGFYWNIDCDNNCGGTKSSTTTSSTSESSTTTSSTSESSTTTSSTSESSTTTSSTSESSTSSSTTAPATPTTTSCTKEKPTPPTTTSCTKEKPTPPHHDTTPCTKKKTTTSKTCTKKTTTPVPTPSSSTTESSSAPVPTPSSSTTESSSAPVTSSTTESSSAPVPTPSSSTTESSSAPVTSSTTESSSAPVTSSTTESSSAPVPTPSSSTTESSSAPVTSSTTESSSAPVTSSTTESSSAPVTSSTTESSSAPVTSSTTESSSAPVPTPSSSTTESSSAPVTSSTTESSSAPVPTPSSSTTESSSAPVTSSTTESSSAPVPTPSSSTTESSSAPAPTPSSSTTESSSAPVTSSTTESSSAPVPTPSSSTTESSSTPVTSSTTESSSAPVPTPSSSTTESSSAPVPTPSSSTTESSSAPAPTPSSSTTESSSAPVTSSTTESSSAPVPTPSSSTTESSSAPVPTPSSSTTESSSAPVPTPSSSTTESSSAPVTSSTTESSSAPVTSSTTESSSAPVPTPSSSTTESSSAPVPTPSSSTTESSSAPVPTPSSSTTESSSAPVTSSTTESSSAPVPTPSSSTTESSSAPVPTPSSSTTESSSAPVPTPSSSTTESSVAPVPTPSSSSNITSSAPSSTPFSSSTESSSVPVPTPSSSTTESSSAPVSSSTTESSVAPVPTPSSSSNITSSAPSSIPFSSTTESFSTGTTVTPSSSKYPGSQTETSVSSTTETTIVPTKTTTSVTTPSTTTITTTVCSTGTNSAGETTSGCSPKTVTTTVPTTTTTSVTTSSTTTITTTVCSTGTNSAGETTSGCSPKTITTTVPCSTSPSETASESTTTSPTTPVTTVVSTTVVTTEYSTSTKPGGEITTTFVTKNIPTTYLTTIAPTPSVTTVTNFTPTTITTTVCSTGTNSAGETTSGCSPKTVTTTVPCSTGTGEYTTEATTLVTTAVTTTVVTTESSTGTNSAGKTTTGYTTKSVPTTYVTTLAPSAPVTPATNAVPTTITTTECSAATNAAGETTSVCSAKTIVSSASAGENTAPSATTPVTTAIPTTVITTESSVGTNSAGETTTGYTTKSIPTTYITTLIPGSNGAKNYETVATATNPISIKTTSQLATTASASSVAPVVTSPSLTGPLQSASGSAVATYSVPSISSTYQGAANIKVLGNFMWLLLALPVVF
# Legend:
# Test in all cases: glycan array binding signal (z-score within array); higher = stronger binding
# Details in all cases: glycan notation: IUPAC condensed, linker removed
# [1] = biological target: Fuc(a1-2)[GalNAc(a1-3)]Gal(b1-4)Glc
# How it was run: (§1)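 The binding signal is a Z-score computed within each array and averaged over linkers. Arrays of the same protein sequence at different concentrations or buffers were also averaged together. Data originate from 3228 arrays in the Consortium for Functional Glycomics database, kept only where the protein sequence was available.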
# [2] = biological target: Fuc(a1-2)[GalNAc(a1-3)]Gal(b1-4)GlcNAc
# How it was run: as §1
# [3] = biological target: Fuc(a1-2)[GalNAc(a1-3)]Gal(b1-4)GlcNAc(b1-2)Man(a1-3)[Fuc(a1-2)[GalNAc(a1-3)]Gal(b1-4)GlcNAc(b1-2)Man(a1-6)]Man(b1-4)GlcNAc(b1-4)GlcNAc
# How it was run: as §1
# [4] = biological target: Fuc(a1-2)[GalNAc(a1-3)]Gal(b1-4)GlcNAc(b1-2)Man(a1-3)[Fuc(a1-2)[GalNAc(a1-3)]Gal(b1-4)GlcNAc(b1-2)Man(a1-6)]Man(b1-4)GlcNAc(b1-4)[Fuc(a1-6)]GlcNAc
# How it was run: as §1
# [5] = biological target: Fuc(a1-2)[GalNAc(a1-3)]Gal(b1-4)GlcNAc(b1-3)Gal(b1-4)GlcNAc
# How it was run: as §1
# [6] = biological target: Fuc(a1-2)[GalNAc(a1-3)]Gal(b1-4)GlcNAc(b1-3)Gal(b1-4)GlcNAc(b1-3)Gal(b1-4)GlcNAc
# How it was run: as §1
# [7] = biological target: Fuc(a1-2)[GalNAc(a1-3)]Gal(b1-4)GlcNAc(b1-3)GalNAc
# How it was run: as §1
# [8] = biological target: Fuc(a1-2)[GalNAc(a1-3)]Gal(b1-4)[Fuc(a1-3)]GlcNAc
# How it was run: as §1
# [9] = biological target: Fuc(a1-2)[GalNAc(a1-3)]Gal(b1-4)[Fuc(a1-3)]GlcNAc(b1-3)GalNAc
# How it was run: as §1
# [10] = biological target: Fuc(a1-2)[GalNAc(a1-4)]Gal(b1-4)GlcNAc
# How it was run: as §1
# [11] = biological target: Fuc(a1-2)[GalNAc(b1-3)]Gal
# How it was run: as §1
# Fuc(a1-3)GlcNAc = biological target: Fuc(a1-3)GlcNAc
# How it was run: as §1
# [12] = biological target: Fuc(a1-3)[Gal(b1-4)]Glc6S
# How it was run: as §1
# [13] = biological target: Fuc(a1-3)[Gal(b1-4)]GlcNAc
# How it was run: as §1
# [14] = biological target: Fuc(a1-3)[Gal(b1-4)]GlcNAc(b1-2)Man(a1-3)[Fuc(a1-3)[Gal(b1-4)]GlcNAc(b1-2)Man(a1-6)]Man(b1-4)GlcNAc(b1-4)GlcNAc
# How it was run: as §1
# [15] = biological target: Fuc(a1-3)[Gal(b1-4)]GlcNAc(b1-2)Man(a1-3)[Fuc(a1-3)[Gal(b1-4)]GlcNAc(b1-2)Man(a1-6)]Man(b1-4)GlcNAc(b1-4)[Fuc(a1-6)]GlcNAc
# How it was run: as §1
# [16] = biological target: Fuc(a1-3)[Gal(b1-4)]GlcNAc(b1-3)Gal(b1-3)[Fuc(a1-4)]GlcNAc
# How it was run: as §1
# [17] = biological target: Fuc(a1-3)[Gal(b1-4)]GlcNAc(b1-3)GalNAc
# How it was run: as §1
# [18] = biological target: Fuc(a1-3)[Gal(b1-4)]GlcNAc(b1-4)Gal(b1-4)[Fuc(a1-3)]GlcNAc
# How it was run: as §1
# [19] = biological target: Fuc(a1-3)[Gal(b1-4)]GlcNAc(b1-4)Gal(b1-4)[Fuc(a1-3)]GlcNAc(b1-4)Gal(b1-4)[Fuc(a1-3)]GlcNAc
# How it was run: as §1
# [20] = biological target: Fuc(a1-3)[Gal(b1-4)]GlcNAc(b1-6)GalNAc
# How it was run: as §1
# [21] = biological target: Fuc(a1-3)[Gal(b1-4)]GlcNAc(b1-6)[Gal(b1-3)GlcNAc(b1-3)]Gal(b1-4)Glc
# How it was run: as §1
# [22] = biological target: Fuc(a1-3)[Gal(b1-4)]GlcNAc(b1-6)[Neu5Ac(a2-3)Gal(b1-3)]GalNAc
# How it was run: as §1
# [23] = biological target: Fuc(a1-3)[Gal(b1-4)]GlcNAc6S
# How it was run: as §1
# [24] = biological target: Fuc(a1-3)[Gal3S(b1-4)]GlcNAc
# How it was run: as §1
# [25] = biological target: Fuc(a1-3)[Gal3S(b1-4)]GlcNAc6S
# How it was run: as §1
# [26] = biological target: Fuc(a1-3)[GalNAc(b1-4)]GlcNAc
# How it was run: as §1
# Fuc(a1-4)GlcNAc = biological target: Fuc(a1-4)GlcNAc
# How it was run: as §1
# Fuc(b1-3)GlcNAc = biological target: Fuc(b1-3)GlcNAc
# How it was run: as §1
# Gal(a1-2)Gal = biological target: Gal(a1-2)Gal
# How it was run: as §1
# Gal(a1-3)Gal = biological target: Gal(a1-3)Gal
# How it was run: as §1
# Gal(a1-3)Gal(b1-3)GlcNAc = biological target: Gal(a1-3)Gal(b1-3)GlcNAc
# How it was run: as §1
# [27] = biological target: Gal(a1-3)Gal(b1-3)GlcNAc(b1-2)Man(a1-3)[Gal(a1-3)Gal(b1-3)GlcNAc(b1-2)Man(a1-6)]Man(b1-4)GlcNAc(b1-4)GlcNAc
# How it was run: as §1
# [28] = biological target: Gal(a1-3)Gal(b1-3)GlcNAc(b1-3)GalNAc
# How it was run: as §1
# [29] = biological target: Gal(a1-3)Gal(b1-3)[Fuc(a1-4)]GlcNAc(b1-2)Man(a1-3)[Gal(a1-3)Gal(b1-3)[Fuc(a1-4)]GlcNAc(b1-2)Man(a1-6)]Man(b1-4)GlcNAc(b1-4)GlcNAc
# How it was run: as §1
# Gal(a1-3)Gal(b1-4)Glc = biological target: Gal(a1-3)Gal(b1-4)Glc
# How it was run: as §1
# Gal(a1-3)Gal(b1-4)GlcNAc = biological target: Gal(a1-3)Gal(b1-4)GlcNAc
# How it was run: as §1
# [30] = biological target: Gal(a1-3)Gal(b1-4)GlcNAc(b1-3)GalNAc
# How it was run: as §1
# [31] = biological target: Gal(a1-3)Gal(b1-4)[Fuc(a1-3)]GlcNAc
# How it was run: as §1
# [32] = biological target: Gal(a1-3)Gal(b1-4)[Fuc(a1-3)]GlcNAc(b1-2)Man(a1-3)[Gal(a1-3)Gal(b1-4)[Fuc(a1-3)]GlcNAc(b1-2)Man(a1-6)]Man(b1-4)GlcNAc(b1-4)GlcNAc
# How it was run: as §1
# Gal(a1-3)GalNAc = biological target: Gal(a1-3)GalNAc
# How it was run: as §1
# [33] = biological target: Gal(a1-3)[Gal(a1-4)]Gal(b1-4)GlcNAc
# How it was run: as §1
# [34] = biological target: Gal(a1-4)Gal(b1-3)GlcNAc(b1-2)Man(a1-3)[Gal(a1-4)Gal(b1-3)GlcNAc(b1-2)Man(a1-6)]Man(b1-4)GlcNAc(b1-4)GlcNAc
# How it was run: as §1
# Gal(a1-4)Gal(b1-4)Glc = biological target: Gal(a1-4)Gal(b1-4)Glc
# How it was run: as §1
# Gal(a1-4)Gal(b1-4)GlcNAc = biological target: Gal(a1-4)Gal(b1-4)GlcNAc
# How it was run: as §1
binder,measurement,setting,value
B1,glycan array binding signal (z-score),[1],-0.166
same,glycan array binding signal (z-score),[2],-0.692
same,glycan array binding signal (z-score),[3],2.17
same,glycan array binding signal (z-score),[4],-1.28
same,glycan array binding signal (z-score),[5],-0.327
same,glycan array binding signal (z-score),[6],-0.847
same,glycan array binding signal (z-score),[7],-0.713
same,glycan array binding signal (z-score),[8],0.666
same,glycan array binding signal (z-score),[9],2.06
same,glycan array binding signal (z-score),[10],0.491
same,glycan array binding signal (z-score),[11],0.001
same,glycan array binding signal (z-score),Fuc(a1-3)GlcNAc,0.066
same,glycan array binding signal (z-score),[12],0.335
same,glycan array binding signal (z-score),[13],0.513
same,glycan array binding signal (z-score),[14],0.196
same,glycan array binding signal (z-score),[15],-1.2
same,glycan array binding signal (z-score),[16],-0.603
same,glycan array binding signal (z-score),[17],-0.504
same,glycan array binding signal (z-score),[18],0.956
same,glycan array binding signal (z-score),[19],-1.32
same,glycan array binding signal (z-score),[20],0.56
same,glycan array binding signal (z-score),[21],-1.18
same,glycan array binding signal (z-score),[22],0.687
same,glycan array binding signal (z-score),[23],-0.514
same,glycan array binding signal (z-score),[24],0.019
same,glycan array binding signal (z-score),[25],-0.061
same,glycan array binding signal (z-score),[26],1.61
same,glycan array binding signal (z-score),Fuc(a1-4)GlcNAc,0.442
same,glycan array binding signal (z-score),Fuc(b1-3)GlcNAc,-0.342
same,glycan array binding signal (z-score),Gal(a1-2)Gal,-0.278
same,glycan array binding signal (z-score),Gal(a1-3)Gal,-0.443
same,glycan array binding signal (z-score),Gal(a1-3)Gal(b1-3)GlcNAc,0.237
same,glycan array binding signal (z-score),[27],0.723
same,glycan array binding signal (z-score),[28],-0.408
same,glycan array binding signal (z-score),[29],0.122
same,glycan array binding signal (z-score),Gal(a1-3)Gal(b1-4)Glc,-0.454
same,glycan array binding signal (z-score),Gal(a1-3)Gal(b1-4)GlcNAc,-0.491
same,glycan array binding signal (z-score),[30],-0.434
same,glycan array binding signal (z-score),[31],-0.437
same,glycan array binding signal (z-score),[32],1.4
same,glycan array binding signal (z-score),Gal(a1-3)GalNAc,-0.545
same,glycan array binding signal (z-score),[33],0.144
same,glycan array binding signal (z-score),[34],-0.042
same,glycan array binding signal (z-score),Gal(a1-4)Gal(b1-4)Glc,-0.684
same,glycan array binding signal (z-score),Gal(a1-4)Gal(b1-4)GlcNAc,-0.103

# 13 consecutive entries out of the list so far, for reference:
binder,measurement,setting,value
B1,glycan array binding signal (z-score),[1],-0.166
same,glycan array binding signal (z-score),[2],-0.692
same,glycan array binding signal (z-score),[3],2.17
same,glycan array binding signal (z-score),[4],-1.28
same,glycan array binding signal (z-score),[5],-0.327
same,glycan array binding signal (z-score),[6],-0.847
same,glycan array binding signal (z-score),[7],-0.713
same,glycan array binding signal (z-score),[8],0.666
same,glycan array binding signal (z-score),[9],2.06
same,glycan array binding signal (z-score),[10],0.491
same,glycan array binding signal (z-score),[11],0.001
same,glycan array binding signal (z-score),Fuc(a1-3)GlcNAc,0.066
same,glycan array binding signal (z-score),[12],0.335
